ClpP1P2: 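Protease assay of ClpP1P2, read by the AMC dye that it sets free. Target: ClpP1P2, Mycobacterium tuberculosis (UniProt P9WPC5 and UniProt P9WPC3). Compounds at 50 µM. Direction is inferred from only a few compounds that gave an IC50; most scored high, so higher reads as stronger inhibition. Most other retested compounds had strongly negative values. Size under these conditions: about 69,000 compounds, about 10 of them at 50% or above in at least one test.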
Toxoplasma: 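Assay of Toxoplasma gondii numbers, read through their beta-galactosidase reporter with a colour substrate. Tested at 10 µM. Higher reads as fewer parasites (inferred from which compounds were picked for retests). About 67,000 compounds were tested under these conditions; 0.38% (about 260) showed 50% or more at least once.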
Leishmania in macrophages: 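Cell assay of Leishmania donovani living inside macrophages; the read-out is not stated. Compounds at 30 µM. Direction is inferred from retests: higher values go with stronger inhibition. Of about 69,000 compounds tested this way, about 1,000 (1.5%) reached 50% or more in at least one test.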
TcHisRS: 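Enzyme assay of histidyl-tRNA synthetase; the read-out is not stated. Target: Histidine-tRNA ligase, Trypanosoma cruzi CL Brener (UniProt Q4DA54). Tested at 30 µM. Higher reads as stronger inhibition (inferred: compounds with an IC50 in retests scored well above the rest). Of about 69,000 compounds tested this way, about 31 (0.045%) reached 50% or more in at least one test.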
CoaBC: 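Enzyme assay of CoaBC with a phosphate dye (Biomol Green) read at 650 nm. Target: Coenzyme A biosynthesis protein CoaBC, Mycobacterium tuberculosis (UniProt P9WNZ1). Tested at 30 µM. Direction is inferred from only a few compounds that gave an IC50; most scored high, so higher reads as stronger inhibition. Most strong results did not repeat in a second test. Size under these conditions: about 67,000 compounds, about 40 of them at 50% or above in at least one test.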

The chains behind the UniProt entries cited, without tags or fusion partners. Residues count along the entry.
UniProt P9WPC5, whole entry: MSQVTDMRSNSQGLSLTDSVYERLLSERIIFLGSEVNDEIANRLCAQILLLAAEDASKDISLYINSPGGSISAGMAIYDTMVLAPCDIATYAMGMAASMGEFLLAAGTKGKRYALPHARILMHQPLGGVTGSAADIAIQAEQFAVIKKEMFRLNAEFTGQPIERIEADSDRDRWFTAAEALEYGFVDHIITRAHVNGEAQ
UniProt P9WPC3, whole entry partner: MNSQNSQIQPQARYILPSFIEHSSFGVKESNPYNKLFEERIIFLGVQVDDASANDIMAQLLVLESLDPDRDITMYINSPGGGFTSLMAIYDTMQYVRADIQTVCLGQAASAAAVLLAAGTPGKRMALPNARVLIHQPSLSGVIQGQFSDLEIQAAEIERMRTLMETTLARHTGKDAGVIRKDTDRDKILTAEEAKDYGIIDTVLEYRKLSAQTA
UniProt Q4DA54, 1-478: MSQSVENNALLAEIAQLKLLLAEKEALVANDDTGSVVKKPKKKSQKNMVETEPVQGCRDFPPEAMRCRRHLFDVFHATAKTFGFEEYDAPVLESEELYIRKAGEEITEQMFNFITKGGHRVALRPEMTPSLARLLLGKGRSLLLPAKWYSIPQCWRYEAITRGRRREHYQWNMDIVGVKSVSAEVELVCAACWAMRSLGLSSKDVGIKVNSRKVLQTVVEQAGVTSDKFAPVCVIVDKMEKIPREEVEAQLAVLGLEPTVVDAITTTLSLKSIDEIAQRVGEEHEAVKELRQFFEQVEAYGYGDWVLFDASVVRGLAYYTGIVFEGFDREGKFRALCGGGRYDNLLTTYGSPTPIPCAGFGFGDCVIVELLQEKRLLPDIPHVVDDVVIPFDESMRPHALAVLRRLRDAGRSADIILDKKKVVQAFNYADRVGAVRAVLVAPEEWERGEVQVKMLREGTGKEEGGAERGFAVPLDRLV
UniProt P9WNZ1, whole entry: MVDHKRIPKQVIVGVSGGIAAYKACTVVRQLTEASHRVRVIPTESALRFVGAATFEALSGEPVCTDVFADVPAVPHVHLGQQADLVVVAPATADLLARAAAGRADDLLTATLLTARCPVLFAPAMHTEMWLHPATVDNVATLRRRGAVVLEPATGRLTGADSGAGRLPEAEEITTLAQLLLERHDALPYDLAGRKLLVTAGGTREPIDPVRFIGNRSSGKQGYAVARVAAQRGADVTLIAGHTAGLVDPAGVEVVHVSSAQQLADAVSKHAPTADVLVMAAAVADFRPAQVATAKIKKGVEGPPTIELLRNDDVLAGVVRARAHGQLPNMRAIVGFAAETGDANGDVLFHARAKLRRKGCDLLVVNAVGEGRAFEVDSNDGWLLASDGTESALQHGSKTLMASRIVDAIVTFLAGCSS

Each number is a percent effect as filed.
The controls that fix the scale are not given in the record; negative values are as filed.
Compounds were drawn at random from those tested, without regard to their results.
Two or more numbers in one place are separate tests of the same structure; such repeats can differ widely.

For COc1ccc(CN(C)c2ncc(S(N)(=O)=O)s2)c(OC)c1 the result was ClpP1P2: -5.132%; Toxoplasma: -4.225%; Leishmania in macrophages: -14.15%; TcHisRS: 6.897%; CoaBC: 3.733%.
For CCOCC1CN(Cc2ccc(OC)cc2)Cc2nn(CC3CC3)cc21.O=C(O)C(F)(F)F (stereo not shown) the result was Toxoplasma: 12.46%; Leishmania in macrophages: 28.74%.
For Cc1noc(CN(Cc2cccs2)C2CC2)n1 the result was ClpP1P2: -22.16%; Toxoplasma: 38.73%; Leishmania in macrophages: -10.16%; TcHisRS: -3.139%; CoaBC: 1.015%.
For CCn1ncc2c1C(COC)CN(Cc1ccsc1)C2 (stereo not shown) the result was ClpP1P2: 6.918%; Toxoplasma: 2.499%; Leishmania in macrophages: -9.326%; TcHisRS: 4.237%; CoaBC: 10.13%.
For Cc1cc(OCc2ccc(C(=O)O)s2)ccc1Cl the result was ClpP1P2: -13.32%; Toxoplasma: 3.165%; Leishmania in macrophages: 13.18%; TcHisRS: -11.3%; CoaBC: -2.079%.
For CC(C)c1noc(CCC(=O)NC(C)c2nnc3n2CCCCC3)n1 (stereo not shown) the result was ClpP1P2: 0.7969%; Toxoplasma: -3.881%; Leishmania in macrophages: 4.296%; TcHisRS: -25.42%; CoaBC: 1.762%.
For COC(=O)[C@@H]1CN(C(=O)Nc2ccccc2)CCN1C(C)=O the result was ClpP1P2: -11.84%; Toxoplasma: 12.79%; Leishmania in macrophages: 12.33%; TcHisRS: 2.97%; CoaBC: 4.289%.
For CC(C)N(CC(N)=O)Cc1cccc(Br)c1 the result was ClpP1P2: -8.971%; Toxoplasma: 1.299%; Leishmania in macrophages: 19.44%; TcHisRS: 5.419%; CoaBC: 6.329%.
For Cc1cccc(CN2CCC(C3Nc4ccccc4S(=O)(=O)N3)CC2)n1 (stereo not shown) the result was ClpP1P2: -6.694%; Toxoplasma: -24.11%; Leishmania in macrophages: 17.2%; TcHisRS: 2.247%; CoaBC: 2.354%.
For CCN(C(=O)C(C)S(=O)(=O)Cc1nc(C)no1)c1ccccc1 (stereo not shown) the result was ClpP1P2: 2.792%; Toxoplasma: 10.53%; Leishmania in macrophages: -6.809%; TcHisRS: 3.067%; CoaBC: 2.433%.
For Cc1noc([C@@]23CCO[C@@H]2CCN(C(=O)c2cc(C)[nH]c2C)C3)n1 the result was ClpP1P2: -8.981%; TcHisRS: 2.488%; CoaBC: 1.613%.
For CC(C)CC(C)NCc1cccnc1N1CCOCC1 (stereo not shown) the result was ClpP1P2: 4.2%; Toxoplasma: 0.7088%; Leishmania in macrophages: 21.68%; TcHisRS: 1.478%; CoaBC: 5.696%.
For CS(=O)(=O)c1cn[nH]c1C1CCCCN1C(=O)Cc1cccnc1 (stereo not shown) the result was ClpP1P2: 11.13%; Toxoplasma: 9%; Leishmania in macrophages: 8.853% & 6.041%; TcHisRS: 2.985%; CoaBC: 5.596%.
For Cc1ccc(CN(C)C(=O)c2ccc(NC3CC3)nc2)o1 the result was ClpP1P2: -2.894%; Toxoplasma: -4.805%; Leishmania in macrophages: 24.74%; TcHisRS: 9.249%; CoaBC: 2.999%.
For Cc1ccc(OCCC(=O)N2CCC(c3nncn3C)CC2)c(C)c1 the result was ClpP1P2: -27.58%; Toxoplasma: -8.012%; Leishmania in macrophages: -28%; TcHisRS: 4.611%; CoaBC: 1.591%.
For Cn1cc(CN2CCC[C@]3(C[C@H](Oc4ccccn4)CO3)C2)cn1 the result was ClpP1P2: -14.01%; Toxoplasma: -5.842%; Leishmania in macrophages: -0.3326%; TcHisRS: 3.911%; CoaBC: 3.758%.
For Cc1ccccc1N1CCN(C(=O)c2ccc[nH]2)C(C)C1 (stereo not shown) the result was ClpP1P2: -9.04%; Toxoplasma: 4.718%; Leishmania in macrophages: 23.65%; TcHisRS: -2.479%; CoaBC: -6.579%.
For COc1ccc(NC(=O)NC(C)(C)c2noc(C)n2)cc1 the result was ClpP1P2: -1.71%; Toxoplasma: -2.189%; Leishmania in macrophages: 3.007%; TcHisRS: 0.8264%; CoaBC: 0.6397%.
For CC(C)c1nc(CC(=O)N(C)Cc2ccc3c(c2)OCO3)cs1 the result was ClpP1P2: 1.296%; Toxoplasma: 6.068%; Leishmania in macrophages: -17.02%; TcHisRS: 4.516%; CoaBC: 2.415%.
For Cc1ccc(-c2nc(CN3CCN(S(=O)(=O)N(C)C)CC3)cs2)o1 the result was ClpP1P2: 1.129%; Toxoplasma: -1.069%; Leishmania in macrophages: 27.16%; TcHisRS: 1.128%; CoaBC: 4.178%.
For CCc1nc2c(c(NCc3cc(-c4cccnc4)no3)n1)CCNCC2 the result was ClpP1P2: -9.75%; Toxoplasma: 1.556%; Leishmania in macrophages: 7.345%; TcHisRS: 0.5236%; CoaBC: -9.671%.

From ChEMBL document CHEMBL3988442, “University of Dundee, Small-Polar-MMV Screening Library” (2021).